The values that follow come from article PMC7819943, “Rice protein-binding microarrays: a tool to detect cis-acting elements near promoter regions in rice”.

By UniProt entry, the sequences of proteins in these tests, tags left out.
UniProt Q0JBA9, entry or part of it: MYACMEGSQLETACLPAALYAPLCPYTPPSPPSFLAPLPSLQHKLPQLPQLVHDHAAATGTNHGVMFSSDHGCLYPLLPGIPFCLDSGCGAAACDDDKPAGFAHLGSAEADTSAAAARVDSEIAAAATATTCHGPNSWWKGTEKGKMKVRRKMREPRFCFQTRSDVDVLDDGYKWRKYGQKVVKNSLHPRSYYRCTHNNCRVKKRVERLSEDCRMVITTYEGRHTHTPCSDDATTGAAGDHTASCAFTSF

The list shows a part of the results.

For this test, the target named is OsWRKY34 (Oryza sativa, UniProt Q0JBA9 1-250). As to the kind of experiment: protein-binding microarray (RPBM); PBS, 2% BSA, 51.3 ng/ul salmon testes DNA, 50 uM zinc acetate, 200 nM TF, 25 C, 1 h; high values mean tight binding. The following applies: protein: recombinant; tags: N-terminal polyhistidine and DsRed monomer fusion (pET32a); label: CyDye5-dUTP incorporated in the synthesized complementary strand; 3' TTTTT single-stranded linker to array surface; dsDNA, one strand shown. The method in brief: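 Binding signal is reported as fluorescence intensity per feature (arbitrary units) from an Axon 4000B scanner. Incubation used 200 nM of each Ni–NTA-purified, N-terminally polyhistidine- and DsRed-fused transcription factor from E. coli BL21-CodonPlus on a double-stranded custom Agilent array for 1 h at 25 °C, with 50 µM zinc acetate in the buffer, followed by washing.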
For the sequence “TCTTATCTGATGACTACATACCCATTGGTTATCACATTTCCGGAGTCACCTAGTGCAG”, the binding signal was 9210 fluorescence intensity (a.u.).

In the case of “TTCTCTTTATTTCTCCACATATAAGTCAAATTTGACCGATCGGAGTCACCTAGTGCAG”, the binding signal was 8520 fluorescence intensity (a.u.). The value for “GACGGGCGGCGGTGGGGCTGACGCGGGCGACGGAGGGGCTCGGAGTCACCTAGTGCAG” was 11500 fluorescence intensity (a.u.). The result for “AGGAGAGAAAGGAAGGTGGTGTGGGTGGTTGGTGGTGGTGCGGAGTCACCTAGTGCAG” reads 10300 fluorescence intensity (a.u.); that for “GTTTAGACATGGTTCACCAGCTGCTTTTTATTATACTTTACGGAGTCACCTAGTGCAG”, 8850 fluorescence intensity (a.u.). The value for “ATGTAAGATCGACGTATCAGTCAGTGCTACTGCACCAGCGCGGAGTCACCTAGTGCAG” was 8080 fluorescence intensity (a.u.). Consider “TTTTTAGCCCGCTGCTCTTCTCTCTCCTCATTTATCTTCTCGGAGTCACCTAGTGCAG”, for which the binding signal was 10600 fluorescence intensity (a.u.). Regarding “TATCTTAGGGCATGTTTGGTTGTACGGATCGTACCTGACTCGGAGTCACCTAGTGCAG”, the binding signal was 9620 fluorescence intensity (a.u.). As for “CAGGAGGCAGGGGTGATCTTTCAGCGGTTAAATCGGGTGACGGAGTCACCTAGTGCAG”, the binding signal is 8590 fluorescence intensity (a.u.). The result for “TTCCTCGCCGCTTTTTTCTTTGCTTCTTGCGGTGGCCATGCGGAGTCACCTAGTGCAG” reads 8440 fluorescence intensity (a.u.); that for “TATACATGGGCTTAATTCTCACCAACAGCGACGGGTGGGCCGGAGTCACCTAGTGCAG”, 8230 fluorescence intensity (a.u.); that for “ATTGGAGTTGGTATGGGCGTGTCTGTGGTTTTGAAACATTCGGAGTCACCTAGTGCAG”, 8650 fluorescence intensity (a.u.). The result for “GGTACTTTTCCGGCGGCGGCGGCGGCGGCGGTGGCGGTGGCGGAGTCACCTAGTGCAG” reads 13500 fluorescence intensity (a.u.). The value for “TCTAGCCCTAACGAATCACAAAAATCATGTCTGTTTTTTTCGGAGTCACCTAGTGCAG” was 8980 fluorescence intensity (a.u.). As to “TCTCTCAGTCTCTCACTGACAAATACGTCTCACTAACTGACGGAGTCACCTAGTGCAG”, the binding signal is 8110 fluorescence intensity (a.u.). Regarding “CCTTCCAAAACGCGCCCGATCCAACTCTTGTCCTCGCGCGCGGAGTCACCTAGTGCAG”, the binding signal was 8280 fluorescence intensity (a.u.). On to “AATGTTTCTTTGATTTTTGTTGCTATGTAGGAGTAGTATACGGAGTCACCTAGTGCAG”, for which the binding signal was 8220 fluorescence intensity (a.u.). As for “TATGTGTTTTCTCGTGGCCTAATCAAACGACCATTCCTATCGGAGTCACCTAGTGCAG”, the binding signal was 8410 fluorescence intensity (a.u.). As for “CACCGTACGTTGATCCGCTAGACTCTGCTCCAGTTGACCACGGAGTCACCTAGTGCAG”, the binding signal was 8540 fluorescence intensity (a.u.). The result for “AACCACACTCTGTTTCTAACATTTTTTCTTGTTACATGACCGGAGTCACCTAGTGCAG” reads 13100 fluorescence intensity (a.u.). For the sequence “CCAACTACCTCGCCCAGCCGCACACCGGATTGAGATTCATCGGAGTCACCTAGTGCAG”, the binding signal was 8190 fluorescence intensity (a.u.).

On to “ACATCATTTACCTGTACAAAACATCTCAATTATGCATTGTCGGAGTCACCTAGTGCAG”, for which the binding signal was 8840 fluorescence intensity (a.u.). The result for “CTACTGCTCTCCCCGAACGCGCTACCGTTGTTGGACCCGACGGAGTCACCTAGTGCAG” reads 9250 fluorescence intensity (a.u.); that for “GTTTTCATATTTTTTTCTCACTGTTGGCACTTACACAATCCGGAGTCACCTAGTGCAG”, 9420 fluorescence intensity (a.u.). On to “GGAACACTTGTCACATCATTAAGGTTGATGGTTAGCCCGACGGAGTCACCTAGTGCAG”, for which the binding signal was 8080 fluorescence intensity (a.u.). For “GAGCACATACTTTGGTCATTAATGGTGATTATAATGATATCGGAGTCACCTAGTGCAG”, the binding signal is 8820 fluorescence intensity (a.u.). As for “AGCAATCTTGGCCGTCACTCCACTGCACTCCTATTTATCCCGGAGTCACCTAGTGCAG”, the binding signal is 10200 fluorescence intensity (a.u.). The result for “CTTACACTGCCTTTAACCTCCTTTCTTTCCCTAGGACCTACGGAGTCACCTAGTGCAG” reads 8250 fluorescence intensity (a.u.); that for “GGGATCTACTGCGGCGGTGGGGTCGAGCGAGGGACCGGCGCGGAGTCACCTAGTGCAG”, 8310 fluorescence intensity (a.u.); that for “CAACCTCGCCGTCCTTCGCTTGCTCACGCGGCCTTCTCCGCGGAGTCACCTAGTGCAG”, 11000 fluorescence intensity (a.u.). The value for “TGGTAGTATTTAGTTTGCCTTTTCTTCACGGTTGGTGTCTCGGAGTCACCTAGTGCAG” was 8040 fluorescence intensity (a.u.). In the case of “TGCTGCTCCTACATACTCCCTCCGTTTCGGAATGTTTGACCGGAGTCACCTAGTGCAG”, the binding signal is 9230 fluorescence intensity (a.u.).

Consider “GAACTGTCCACGTTACCAGCCCGCATTGAATAACGCTTTGCGGAGTCACCTAGTGCAG”, for which the binding signal was 10500 fluorescence intensity (a.u.). As to “AAACTTTTCCCAAACTCTCAACTTTCCATCACATCACATCCGGAGTCACCTAGTGCAG”, the binding signal was 9200 fluorescence intensity (a.u.). The result for “CTTGTCACCGCTGCTAGCTCTTCATTTTGCACTCCAGACTCGGAGTCACCTAGTGCAG” reads 9640 fluorescence intensity (a.u.); that for “GGTGGGCCGGGCTTTGCTTTTGCTTTAAACATTTGCGTGGCGGAGTCACCTAGTGCAG”, 8680 fluorescence intensity (a.u.). The result for “CACAAAAACTTACCTATGTTTTCTTTTGGTTGCTGTGGTTCGGAGTCACCTAGTGCAG” reads 8640 fluorescence intensity (a.u.); that for “ATAGTCTCCTTATAGTACTGGTGTTTTTTTTAAAAAAAATCGGAGTCACCTAGTGCAG”, 10100 fluorescence intensity (a.u.). As to “CTCGTCTGCGCCTCGCCTCGCCTCGCCTCCACGACCGGTCCGGAGTCACCTAGTGCAG”, the binding signal was 11600 fluorescence intensity (a.u.). Regarding “AACAATTATCCACAAATGGACAGACATCATCATCGGTCACCGGAGTCACCTAGTGCAG”, the binding signal was 9060 fluorescence intensity (a.u.). The result for “TGTTGTTGTTTCTTTGCATTTGTATGCCTGCCGTCTGCATCGGAGTCACCTAGTGCAG” reads 14700 fluorescence intensity (a.u.); that for “GTTAATAATCCACGTTTTCCGATGCATCCATGACTCATTCCGGAGTCACCTAGTGCAG”, 11900 fluorescence intensity (a.u.).
